Earlier results, collected in patent publication US10736868B2, “Compositions comprising rumenic acid-rich conjugated linoleic acid for brain health” (STEPAN SPECIALTY PRODUCTS, LLC, priority 2016, dated 2020).
For at least one compound, name, drawing or mass did not settle the structure.

How the values were obtained:
[1] = test system: verbal recognition memory and paired associate learning; details: DHA plus antioxidant supplementation
attention and memory = details: patients with mild to moderate Alzheimer's disease

| SMILES | verbal recognition memory and paired associate learning (PAL) [1] | attention and memory (attention and memory) |
| --- | --- | --- |
| CC/C=C\C/C=C\C/C=C\C/C=C\C/C=C\C/C=C\CCC(=O)O [DHA, docosahexaenoic acid] | improved | – |
| CN(CCOc1ccc(CC2SC(=O)NC2=O)cc1)c1ccccn1 (centres unmarked) [rosiglitazone] | – | improved |
